## Microarray screen: hit calls

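The test is a small-molecule microarray: each compound is printed twice on a reactive slide, and binding shows as fluorescence of the labelled oligonucleotide after washing. The data file lists only calls. An earlier report of the laboratory on the PreQ1, TPP and SAM-II riboswitches (doi:10.1038/s41467-019-09493-3) used 1 µM RNA for 2 h and required a mean Z-score above 3 (spot signal-to-noise against the whole library), a score well above that on a control array, and duplicate spots agreeing (coefficient of variation under 100); it then also set aside compounds that hit other targets, which this list keeps. The cut-offs behind this list may differ. The calls come from the array alone, and fixing a compound to the slide can hide its binding.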
A compound is marked yes if it was called a hit and no if it was screened but was not.
Compounds were drawn at random from those tested, without regard to their results.
A target missing from an entry has no call listed here.
A dash means that no call is listed here.

Targets, with sequences 5′ to 3′:
T1: TPP riboswitch RNA three-way junction, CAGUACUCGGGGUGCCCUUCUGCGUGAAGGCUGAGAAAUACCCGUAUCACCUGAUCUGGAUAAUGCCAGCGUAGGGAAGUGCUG. About 160 hits among about 24,000 compounds.
T2: SAM-II riboswitch RNA pseudoknot, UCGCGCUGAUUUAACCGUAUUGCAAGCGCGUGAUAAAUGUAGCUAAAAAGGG. About 200 hits among about 21,000 compounds.
T3: PreQ1 riboswitch RNA pseudoknot, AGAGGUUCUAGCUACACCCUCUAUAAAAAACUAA. From B. subtilis. About 170 hits among about 24,000 compounds.

structure,T1,T2,T3
O=C(c1ccc2nccnc2c1)N1C[C@@H](CN2CCCC2)[C@@H](CO)C1,no,no,no
CCCC(Nc1ccccc1)N1C(=O)CCC1=O (configuration not stated),no,no,no
CCN(CC)CCCCNc1ncc2c(n1)N(C)C(=O)N(c1c(Cl)c(OC)cc(OC)c1Cl)C2,no,no,no
COc1ccc(Nc2nc(SC)nc3c2CCC3)cc1,no,-,no
O=C(NC(=S)Nc1cccc2c(O)cccc12)c1cccc(Br)c1,no,no,no
COc1ccc(Cl)cc1Nc1nc2ccccc2n2c(C)nnc12,no,no,no
CC(C)NC(=O)[C@@H]1C[C@@H](N)CN1C(=O)CCN1Cc2ccccc2C1,no,no,no
N#Cc1ccccc1Cn1c(-c2nonc2N)nc2ccccc21,no,no,no
NC1=NC(c2ccc(Cl)cc2)N(c2ccc(S(N)(=O)=O)cc2)C(N)=N1 (configuration not stated),no,no,no
CCN(CCO)C[C@@H]1CN(C(=O)c2cc(-c3cccs3)n(C)n2)C[C@@H]1CO,no,no,no
COCc1noc(CNc2nc(-c3ccccc3)nc3c2CCNC3)n1,no,no,no
CCN(CC(O)c1cccc(O)c1)C(=O)c1ccc(-n2cnnc2)nc1 (configuration not stated),no,no,no
CC(=O)CSc1nnc(N)s1,no,no,no
CN(C)CC(O)COc1ccc(CN2CCN(c3ncc[nH]c3=O)CC2)cc1 (configuration not stated),no,no,no
Nc1ncc2[nH]c(N)nc2n1,no,no,no
CNc1c(NS(=O)(=O)c2ccc(OC)c(Cl)c2)c(=O)oc2ccccc12,no,no,no
N[C@H](Cc1ccc(Cl)cc1)C(=O)N1CCC(CCN2CCCC2=O)CC1,no,no,no
COc1ccccc1Cc1nc(-c2c(C)[nH]c(C(=O)O)c2C)n(CCO)n1,no,no,no
COc1ccc2c(C(O)CN3CCN(c4ccc(F)cc4)CC3)c[nH]c2c1 (configuration not stated),no,-,no
Cl.c1ccc(-c2ccccc2OCCCCNCCN2CCOCC2)cc1,no,no,no
Cc1cc(N)ccn1,no,no,no
CC[C@H](CO)Nc1nc(NCc2ccccc2)c2ncn(C(C)C)c2n1,no,no,no
Cc1nnc(-c2ccc(NCC3CCCO3)c([N+](=O)[O-])c2)o1 (configuration not stated),no,no,no
CC1(C)CC(CCNCc2ccc(F)cc2)(Cc2ccccc2)CCO1 (configuration not stated),no,no,no
COc1ccc(NC(C)(C)C(=O)N2CCc3c(ncnc3N(C)C)C2)cc1,no,no,no
CNCC(=O)NC1CCCN(C(=O)c2cccs2)C1 (configuration not stated),no,no,no
CC(C)c1cc(C(=O)N[C@H]2CC[C@H]2NC2CCOCC2)no1,no,no,no
Nc1nc2c(Cl)cc(F)cc2s1,no,yes,yes
CC(=O)c1cccc(Nc2cc(C)nc3nc(-c4cccc(C)c4)nn23)c1,no,-,no
CCc1nc(N)sc1C(=O)N1CCC(Oc2ccccc2C)CC1,no,no,no
Oc1cc(-n2cccn2)c(O)cc1-n1cccn1,no,no,no
Cc1cc(C)c2c(N)c(C(=O)Nc3ccccc3)sc2n1,no,no,no
CC(O)CNc1cc(=O)oc2ccccc12 (configuration not stated),no,no,no
CCN(Cc1noc(CC(C)C)n1)c1nc(CCN)nc2ccccc12,no,no,no
C[C@@H]1[C@H](C)CC[C@]2(C(=O)O)CC[C@]3(C)C(=CC[C@@H]4[C@@]5(C)C[C@@H](O)[C@H](O)[C@@](C)(CO)[C@H]5CC[C@]43C)[C@@H]12,no,no,no
Cc1n[nH]c(C)c1CNC(=O)c1cccc(NCc2cccs2)c1,no,no,no
COc1ccc(-c2nn3c(N4CCN(CCO)CC4)cc(C)nc3c2C)cc1,no,-,no
CCOc1ccc(NC(=O)C(=O)NCCCCC2CCCNC2)cc1 (configuration not stated),no,no,no
Cc1ccc(C)c(N2C(=O)C3C4c5ccccc5C(CO)(c5ccccc54)C3C2=O)c1 (configuration not stated),no,no,no
Fc1ccc(-c2nc3cnccn3c2Nc2ccc(Cl)cc2)cc1,no,-,no
COc1cccc(-c2cnc(NCc3cccc(Cl)c3)n2C)c1,no,no,no
Cn1c(=O)c2c(nc3n(CCCO)c(-c4ccc(Cl)cc4)cn23)n(C)c1=O,no,no,no
Cc1ccccc1OCC(O)Cn1c(C2CC(=O)N(c3cccc(F)c3)C2)nc2ccccc21 (configuration not stated),no,-,no
Nc1nc(-c2c[nH]c3ccccc23)cs1,no,no,no
Nc1c(C(=O)c2ccc(F)cc2)sc2nc3c(cc12)CCCC3,no,no,no
CCCCNc1nc(CC)c2c(c1C#N)CC(C)(C)OC2,no,no,no

For reference, 2 entries once more:

{"structure": "Nc1c(C(=O)c2ccc(F)cc2)sc2nc3c(cc12)CCCC3", "T1": "no", "T2": "no", "T3": "no"}
{"structure": "COc1ccccc1Cc1nc(-c2c(C)[nH]c(C(=O)O)c2C)n(CCO)n1", "T1": "no", "T2": "no", "T3": "no"}

Data from the ROBIN nucleic acid binder screens, doi:10.1002/anie.202211358.